Data: PubChem BioAssay AID540256 (National Center for Advancing Translational Sciences (NCATS), 2011)
The whole screen tested about 300,000 compounds, of which about 3,700 (1.2%) were called active. Inconclusive means that the source gave no clear call. Such entries were picked first, then a sample of the others. The call rests on the fitted dose curve; tested in HEK293 cells. A potency beside an inconclusive call is a rough fit, not a confirmed value.
On the % scale 0 is the no-effect control and ±100 the full control effect; potency means the concentration at half of the fitted maximal effect.

Assay: qHTS for Inhibitors of binding or entry into cells for Lassa Virus; further: nearly all actives have a fitted effect of over 50% in size
Conditions: Lassa virus pseudotype entry inhibition, cell reporter; activity change, negative = inhibition: at 37.9 µM (top of the series) unless noted
With O=C(NCc1ccccn1)c1cccs1 the “activity change, negative = inhibition” value was inactive: -0.0672%. With COc1ccc(-c2nc(CCNC(=O)c3ccco3)cs2)cc1OC the Potency was inconclusive: 20600 nM [inhibitor, single point]. With COCCn1ccc2c(OCC(=O)Nc3cc(OC)ccc3OC)cccc2c1=O the Potency was inconclusive: 1260 nM [inhibitor, full curve, poor fit]. In the case of COC(=O)c1cc(OC)c(OC)cc1NC(=S)Nc1cc(Cl)ccc1OC, the Potency is reported as inconclusive: 1000 nM [inhibitor, partial curve, poor fit]. With Cc1ccc2nc(-c3ccc(NC(=O)CN4C(=O)c5ccccc5C4=O)cc3)sc2c1 the Potency was inconclusive: 1260 nM [activator, single point]. For O=C(NCc1ccco1)c1nc(-c2ccc(F)cc2)no1, the Potency was inconclusive: 35500 nM [inhibitor, single point]. For COc1cc(Cl)c(C)cc1NC(=O)c1nn(-c2ccc(C)cc2)c(=O)n(C)c1=O, the “activity change, negative = inhibition” value was inactive: 4.23% [at 46.1 µM]. With CCOc1ccc(S(=O)(=O)N(C(C)=O)c2ccc3oc(C)c(C(=O)OC)c3c2)cc1 the Potency was inconclusive: 10000 nM [inhibitor, partial curve]. For O=C(NCc1cccs1)c1cc2c(s1)CCCC2, the “activity change, negative = inhibition” value was inactive: -30.8%. In the case of COc1ccccc1NC(=O)Nc1nc(CC(=O)NCc2c(F)cccc2F)cs1, the Potency is reported as inconclusive: 112 nM [inhibitor, full curve, poor fit]. With Cc1ccc(-c2cnc(NCc3c(F)cccc3Cl)n2C)cc1 the Potency was inconclusive: 10000 nM [inhibitor, partial curve, poor fit]. In the case of C=CCC1(CC=C)CCCN1C(=O)c1cc(COc2ccc(-n3cncn3)cc2)on1, the Potency is reported as inconclusive: 5620 nM [inhibitor, partial curve, poor fit]. For CCOc1ccc(NC(=O)Cn2c(=O)c(CNc3ccc(OC)cc3)cc3ccc(OC)cc32)cc1, the “activity change, negative = inhibition” value was inactive: -7.07% [at 46.1 µM]. For O=C(NCc1cccs1)c1cc2c(s1)-c1ccccc1OC2, the Potency was inconclusive: 2060 nM [inhibitor, partial curve, poor fit]. For O=C1/C(=C/c2cccs2)CCC/C1=C\c1cccs1, the Potency was inconclusive: 35500 nM [inhibitor, single point]. With C=CCN1C(=O)C(Cc2ccc(SC(F)F)cc2)SC1=Nc1ccc(C(=O)O)cc1 (centres undefined) the activity change, negative = inhibition was inconclusive: 8.94% [activator]. For CC(=O)Nc1cccc(-c2cc3c(c4c2ccn4C)C2CCC3C2)c1 (centres undefined), the “activity change, negative = inhibition” value was inactive: 3.6% [at 46.1 µM]. In the case of CC(C)OCCCNc1ncc2c(n1)CC(c1ccccc1)CC2=O (centres undefined), the Potency is reported as inconclusive: 2240 nM [inhibitor, full curve, poor fit]. In the case of CCOC(=O)c1ccc(NC(=O)c2nsc3ccccc23)cc1, the Potency is reported as inconclusive: 562 nM [activator, full curve, poor fit].
